Source: patent publication US20140255378A1
Where a chain is given by its changes, count along the chain named. Names may count otherwise. Results are given in words; binding and its absence hold for the method and conditions named. Some entries that bind do so weakly or less than the wild type.

Key:
[1] = molecular target: YRS(1-353)A4C (human tyrosyl-tRNA synthetase residues 1-353 with A4C, C67S and C250S), unPEGylated (human) (UniProt P54577); experiment: size exclusion chromatography (Superdex 200), self-association into homodimer
[2] = molecular target: YRS(1-353)A351C (human tyrosyl-tRNA synthetase residues 1-353 with C67S, C250S and A351C), unPEGylated (human) (UniProt P54577); experiment: as above

B1: YRS(1-353)A4C (human tyrosyl-tRNA synthetase residues 1-353 with A4C, C67S and C250S), unPEGylated (enzyme)
chain: MGDCPSPEEKLHLITRNLQEVLGEEKLKEILKERELKIYWGTATTGKPHVAYFVPMSKIADFLKAGSEVTILFADLHAYLDNMKAPWELLELRVSYYENVIKAMLESIGVPLEKLKFIKGTDYQLSKEYTLDVYRLSSVVTQHDSKKAGAEVVKQVEHPLLSGLLYPGLQALDEEYLKVDAQFGGIDQRKIFTFAEKYLPALGYSKRVHLMNPMVPGLTGSKMSSSEEESKIDLLDRKEDVKKKLKKAFSEPGNVENNGVLSFIKHVLFPLKSEFVILRDEKWGGNKTYTAYVDLEKDFAAEVVHPGDLKNSVEVALNKLLDPIREKFNTPALKKLASAAYPDPSKQKPMAKGHHHHHH
binding [1]: binds

B2: YRS(1-353)A351C (human tyrosyl-tRNA synthetase residues 1-353 with C67S, C250S and A351C), unPEGylated (enzyme)
chain: B1 chain with C4A, A351C
binding [2]: binds
